This note sets out measurements from PubChem BioAssay AID493014 (National Center for Advancing Translational Sciences (NCATS), 2011).

For orientation: AC50 means the midpoint of the concentration-response curve, whichever way the signal moves.

This is one part of the list. The main result of the screen is listed elsewhere. These columns were measured beside it and carry no call. Most of these compounds were active or inconclusive in the main read-out, so they are no random draw. The note in brackets gives the kind of curve behind each potency; many fits are weak.

The nature of the assay: qHTS Assay to Find Inhibitors of Chronic Active B-Cell Receptor Signaling. The note with it: ABC-DLBCL IkBa-CBG/CBR reporter, luminescence ratio (green luciferase fused to IkBa over red control in TMD8 lymphoma cells), 4 h. The procedure, abridged:
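Cell line TMD8 (human ABC DLBCL), stably expressing tet-inducible CBG68-IkBa fusion and CBR; IMDM/0.5% FBS; cpd up to 46 uM; dox induction, 4 h, 37C/5% CO2; dual luminescence; green/red ratio; MG132 control.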
In general terms: In qHTS, concentration-response curves come from the screen itself.

Setting [1] is: measured here: CBR red luminescence, cell number.
[2] abbreviates: measured here: IkBa-CBG green luminescence.

On to `CSc1ccc(C(=O)C2CCCN(C(=O)c3cc4cc(F)ccc4[nH]3)C2)cc1` (configuration not stated), for which, under setting [1], the concentration at half-maximal activity (AC50) was 35.5 µM [rising, single point].
Consider `O=C(NCc1cccs1)c1ccc2c(=O)n3nc(Nc4ccccc4)sc3nc2c1`, for which, under setting [1], the AC50 is 35.5 µM [falling, single point].
With `Cc1noc(C)c1COc1ccc(C(=O)N2CCN(S(=O)(=O)c3cccc(F)c3)CC2)cc1`, under setting [1], the half-maximal activity concentration (AC50) is 0.231 µM [rising, full curve].
Regarding `Cc1ccc2c(c1Br)C(O)(CC(=O)c1ccc(F)cc1)C(=O)N2` (configuration not stated), under setting [1], the AC50 is 11.2 µM [falling, partial curve, poor fit].
For the compound `O=C1CCC(=O)N1c1cccc(-c2nc3ccccc3o2)c1`, the AC50 under setting [1] is 0.517 µM [falling, partial curve, poor fit].
As for `COc1ccc(-c2cn[nH]c2-c2ccc(OC)cc2)cc1`, the AC50 under setting [1] is 10 µM [falling, partial curve, poor fit].
On to `C/C(=N\NC(=O)c1ccc(Br)cc1)C1C(=O)c2ccccc2C1=O`, for which the half-maximal activity concentration (AC50) under setting [1] was 10.3 µM [falling, partial curve, poor fit].
Still for that read-out and setting: in the case of `COC(=O)c1ccc(NC(=O)c2ccc3nccnc3c2)cc1` it was 17.8 µM [falling, partial curve, poor fit].
Regarding `O=C(N/N=C/c1c(Cl)cccc1Cl)c1ccc(F)cc1`, under setting [1], the AC50 was 35.5 µM [falling, single point].
Regarding `COc1cccc(NC(=O)N(C2CCCCC2)C(C)c2cccs2)c1` (configuration not stated), under setting [1], the AC50 was 14.1 µM [falling, single point].
As for `Cc1cc(C(=O)COc2cccnc2[N+](=O)[O-])c(C)n1-c1ccccc1F`, the half-maximal activity concentration (AC50) under setting [1] was 17.8 µM [falling, single point].
Turning to `CCCCCOc1ccc(Br)cc1/C(C)=N/NC1=NCCN1`, the half-maximal activity concentration (AC50) reads like this: under setting [1], 23.1 µM [rising, single point]; under setting [2], 16.4 µM [falling, single point].
Regarding `Cc1cccc(-n2c(SCC(=O)Nc3ncc(Cl)cc3Cl)nc3ccccc32)c1`, the AC50 under setting [1] is 18.4 µM [falling, single point].
With `Cc1ccc(-n2c(SCC(=O)N/N=C/C=C/c3ccccc3[N+](=O)[O-])nc3ccccc3c2=O)cc1`, under setting [1], the half-maximal activity concentration (AC50) was 2.31 µM [falling, full curve].
As to `COC(=O)c1ccc(N2CCCCC2)c(NS(=O)(=O)c2ccc(C)cc2)c1`, the AC50 under setting [1] was 32.6 µM [rising, single point].
The same measure, in the same setting: for `COc1ccc(C2c3c(-c4ccccc4O)n[nH]c3C(=O)N2CCc2ccc(OC)c(OC)c2)cc1` (configuration not stated) the value was 0.82 µM [falling, full curve, poor fit].
With `O=C(Cn1cc([N+](=O)[O-])nc1[N+](=O)[O-])N1CCN(c2ccccc2)CC1`, under setting [1], the AC50 is 14.1 µM [falling, partial curve, poor fit].
Same read-out and setting: in the case of `N#CCC(=O)N/N=C/c1c2ccccc2cc2ccccc12` it was 15.8 µM [falling, partial curve, poor fit].
Take `Cc1ccc2[nH]c(C(=O)N/N=C/c3ccccc3C(=O)O)c(-c3ccccc3)c2c1`: under setting [2], the AC50 is 3.98 µM [falling, full curve].
On to `Cc1ccc2nsnc2c1S(=O)(=O)N(Cc1ccco1)Cc1cc2cccc(C)c2[nH]c1=O`, for which, under setting [1], the AC50 was 35.5 µM [rising, single point].
Same read-out and setting: in the case of `O=C(c1[nH]ncc1-c1ccccc1)C1CO1` (configuration not stated) it was 35.5 µM [falling, single point]; in that of `Cc1ccc(NC(=O)COc2ncnc3ccccc23)cc1S(=O)(=O)N1CCOCC1`, 0.82 µM [rising, full curve].
With `O=C(OCc1nnc(-c2ccccc2)o1)c1ccccc1`, the AC50 under setting [1] was 12.6 µM [falling, single point].
Consider `Nc1cccnc1Sc1cc(Cl)cc(Cl)c1`, for which, under setting [1], the concentration at half-maximal activity (AC50) was 20.6 µM [rising, partial curve].
As to `O=C(COC(=O)Cn1cc(C(F)(F)F)ccc1=O)Nc1ccccc1`, the AC50 under setting [1] was 16.4 µM [rising, partial curve].
With `Cc1cccc(N/N=C/c2ccc(C)s2)c1`, the AC50 under setting [1] is 3.98 µM [rising, partial curve].
Take `O=C(COc1ccc2c(c1)OCO2)NC12CC3CC(CC(C3)C1)C2`: the AC50 under setting [1] is 23.1 µM [falling, single point].
Take `Cc1cc(C(=O)NCc2cccs2)c(C)o1`: the AC50 under setting [1] was 10.3 µM [falling, partial curve, poor fit].
In the case of `C/C(=N\Nc1nccnc1Cl)c1ccc(Cl)c(Cl)c1`, the AC50 under setting [1] was 6.31 µM [rising, partial curve, poor fit].
With `COc1ccc2[nH]c3c(C)c4ccncc4c(C)c3c2c1`, under setting [1], the AC50 is 35.5 µM [falling, single point].
As to `O=[N+]([O-])c1cccnc1N1CCC(c2cc(-c3ccc(Cl)cc3)n[nH]2)CC1`, the AC50 is 29.1 µM [falling, single point] under setting [1] and 20.6 µM [rising, partial curve, poor fit] under setting [2].
On to `c1ccc(C2=NNC(=NC3CC3)SC2)cc1`, for which, under setting [1], the AC50 is 20 µM [falling, single point].
`COC(=O)C1=C(C)N(c2ccc(Cl)c(Cl)c2)C(=O)C1`: the AC50 by setting is: under setting [1], 1.46 µM [falling, full curve]; under setting [2], 20.6 µM [rising, partial curve, poor fit].
On to `O=C1C=C(Nc2ccc(Cl)cc2)CC(c2ccco2)C1` (configuration not stated), for which, under setting [1], the concentration at half-maximal activity (AC50) is 18.4 µM [falling, single point].
`CS(=O)(=O)c1ccc2nc(NC(=O)c3ccc(Cl)cc3)sc2c1`: under setting [1], the AC50 was 2.82 µM [rising, partial curve].
In the case of `Cc1cccc(NC(=O)c2ccccc2NC(=O)CCC(=O)O)c1`, under setting [1], the AC50 is 29.1 µM [rising, single point].
Turning to `CSc1cccc(NC(=O)CCCNC(=O)c2ccc(Cl)cc2)c1`, the half-maximal activity concentration (AC50) under setting [1] was 35.5 µM [falling, single point].
Consider `Clc1ccc2nc(N3CCCCC3)sc2c1`, for which the AC50 under setting [1] was 6.51 µM [rising, single point].
On to `N/C(=N\OC(=O)Cc1ccc([N+](=O)[O-])cc1)c1cccc(Br)c1`, for which the concentration at half-maximal activity (AC50) under setting [1] is 6.31 µM [falling, partial curve].
Take `C/C(Cn1cnc([N+](=O)[O-])n1)=N/NC(=O)COc1ccccc1Cl`: the AC50 under setting [1] was 2.31 µM [rising, full curve].
On the same count and under the same terms, in the case of `CN1C2CCC1CC(N(CCc1ccccc1)C(=O)c1ccc(Cl)cc1)C2` (configuration not stated) it was 14.1 µM [falling, partial curve, poor fit]; in that of `CC(=O)n1nc(-c2ccc(Cl)cc2)nc1NCc1ccco1`, 0.259 µM [rising, full curve, poor fit].
Take `COC(=O)c1sc2nc3c(cc2c1N)COC(C)(C)C3`: the concentration at half-maximal activity (AC50) under setting [1] is 6.51 µM [falling, single point].
With `CCC(=O)Nc1ccc(NC(=O)c2ccccc2)nc1`, the AC50 under setting [1] was 2.24 µM [falling, full curve].
For `CN(C)S(=O)(=O)c1ccc(Cl)c(NC(=O)COC(=O)CNC(=O)c2ccco2)c1`, under setting [1], the half-maximal activity concentration (AC50) is 5.01 µM [rising, full curve, poor fit].
`O=C(Nc1ccc([N+](=O)[O-])cc1)Nc1ccc2c(c1)OCCO2`: the AC50 under setting [1] was 0.794 µM [rising, full curve, poor fit].
With `COc1ccc(NC(=O)c2ccc(C)cc2Cl)c([N+](=O)[O-])c1`, under setting [1], the AC50 was 5.62 µM [rising, partial curve].
On to `C/C(=N\OC(=O)c1ccc(F)cc1)c1sc(-c2ccccc2)nc1C`, for which the AC50 under setting [1] is 0.501 µM [rising, full curve, poor fit].
The same measure, in the same setting: for `O=C(Nc1ccncc1)c1ccc(NS(=O)(=O)c2ccc3[nH]c(=O)[nH]c3c2)cc1` the value was 20 µM [rising, partial curve, poor fit]; for `O=C(Sc1ccccc1)c1cccc(Cn2cc(C(F)(F)F)ccc2=O)c1`, 11.2 µM [falling, partial curve]; for `Cc1cc(=O)n2nc(N3CCC(C(=O)NCC(C)c4ccccc4)CC3)sc2n1` (configuration not stated), 12.6 µM [falling, partial curve, poor fit].
As to `Cc1ccc(NC(=O)C(=O)NCCN2CCN(S(C)(=O)=O)CC2)cc1`, the half-maximal activity concentration (AC50) under setting [1] is 20 µM [rising, single point].
On the same count and under the same terms, for `O=c1cc(CN2CCN(c3ccc(F)cc3)CC2)nc2sccn12` the value was 4.61 µM [falling, single point]; for `CCc1c(O)nc(SCc2ccccc2)n(C(C)CC)c1=O` (configuration not stated), 5.17 µM [falling, partial curve, poor fit]; for `COc1ccccc1NC(=O)COC(=O)CN1C(=O)C(=O)c2ccccc21`, 11.2 µM [falling, single point].
Take `O=C(c1ccc(-c2cccc(Cl)c2Cl)o1)N1CCOCC1`: the AC50 under setting [1] was 0.631 µM [rising, full curve, poor fit].
Turning to `O=C1NC(=O)/C(=C/c2ccccc2OCc2ccccc2)S1`, the half-maximal activity concentration (AC50) under setting [1] was 35.5 µM [falling, single point].
Consider `CCOC(=O)c1c(N)sc2c1CCC1C(=O)N(C3CCCCC3)C(=O)C21` (configuration not stated), for which the half-maximal activity concentration (AC50) under setting [1] is 2.91 µM [falling, full curve].
The same measure, in the same setting: in the case of `CCCn1nnnc1SCC(=O)NCc1ccc(OC)cc1` it was 1.64 µM [rising, single point].
Consider `O=C1/C(=C/C=C/c2ccccc2)Oc2c1ccc(O)c2CN1CCN(CCO)CC1`, for which the half-maximal activity concentration (AC50) under setting [1] was 10 µM [falling, partial curve].
The same measure, in the same setting: for `Cc1ccccc1N1C(=O)c2ccccc2C1Nc1cccnc1` (configuration not stated) the value was 18.4 µM [rising, single point]; for `O=C(CCCl)Nc1nnc(SCC(=O)NC2CCCC2)s1`, 14.1 µM [falling, partial curve, poor fit]; for `O=C(CCN1C(=O)/C(=C/c2ccccc2)SC1=S)NC1CCS(=O)(=O)C1` (configuration not stated), 14.1 µM [falling, partial curve].
The same measure, in the same setting: for `CCOC(=O)c1sc(NC(=O)CSc2nc(C)cc(C(F)(F)F)n2)c(C#N)c1C` the value was 6.51 µM [rising, single point].
